The values that follow come from the supplement of paper PMC6411743.

Chains of the proteins cited; added tags and fusions are not shown. Lines headed by an entry give the natural chain unless they say otherwise; changes in a name come on top.
UniProt Q16566: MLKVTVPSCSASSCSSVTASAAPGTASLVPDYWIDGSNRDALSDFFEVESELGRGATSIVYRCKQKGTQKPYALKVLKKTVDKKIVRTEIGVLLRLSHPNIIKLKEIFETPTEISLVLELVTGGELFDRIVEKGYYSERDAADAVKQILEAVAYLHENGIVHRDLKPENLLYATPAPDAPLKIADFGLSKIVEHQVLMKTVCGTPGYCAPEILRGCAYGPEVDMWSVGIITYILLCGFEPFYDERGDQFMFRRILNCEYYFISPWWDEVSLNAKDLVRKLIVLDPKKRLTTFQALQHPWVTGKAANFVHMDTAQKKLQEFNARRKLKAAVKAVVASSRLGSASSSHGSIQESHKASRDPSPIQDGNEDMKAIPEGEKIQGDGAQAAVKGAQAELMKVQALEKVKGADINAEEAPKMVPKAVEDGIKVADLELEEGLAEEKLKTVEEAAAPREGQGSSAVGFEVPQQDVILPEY
UniProt Q16822, whole entry: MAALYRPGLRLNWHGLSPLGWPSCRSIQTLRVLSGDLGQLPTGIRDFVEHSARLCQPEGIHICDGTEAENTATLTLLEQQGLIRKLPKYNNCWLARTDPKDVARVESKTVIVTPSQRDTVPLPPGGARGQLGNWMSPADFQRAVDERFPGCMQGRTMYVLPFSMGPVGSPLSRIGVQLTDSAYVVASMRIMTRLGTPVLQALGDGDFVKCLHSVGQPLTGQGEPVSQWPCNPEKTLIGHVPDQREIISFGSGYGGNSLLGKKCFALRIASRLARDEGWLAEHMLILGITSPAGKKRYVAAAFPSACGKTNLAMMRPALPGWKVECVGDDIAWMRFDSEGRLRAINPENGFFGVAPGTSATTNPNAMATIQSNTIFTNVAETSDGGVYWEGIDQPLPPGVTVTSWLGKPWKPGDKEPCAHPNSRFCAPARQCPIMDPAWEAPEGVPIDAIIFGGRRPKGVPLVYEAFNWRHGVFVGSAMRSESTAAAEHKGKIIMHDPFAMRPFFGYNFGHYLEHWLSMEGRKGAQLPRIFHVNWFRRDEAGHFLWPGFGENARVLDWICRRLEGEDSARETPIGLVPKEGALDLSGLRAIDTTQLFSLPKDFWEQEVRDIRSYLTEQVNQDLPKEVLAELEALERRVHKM
UniProt Q53GL0, whole entry: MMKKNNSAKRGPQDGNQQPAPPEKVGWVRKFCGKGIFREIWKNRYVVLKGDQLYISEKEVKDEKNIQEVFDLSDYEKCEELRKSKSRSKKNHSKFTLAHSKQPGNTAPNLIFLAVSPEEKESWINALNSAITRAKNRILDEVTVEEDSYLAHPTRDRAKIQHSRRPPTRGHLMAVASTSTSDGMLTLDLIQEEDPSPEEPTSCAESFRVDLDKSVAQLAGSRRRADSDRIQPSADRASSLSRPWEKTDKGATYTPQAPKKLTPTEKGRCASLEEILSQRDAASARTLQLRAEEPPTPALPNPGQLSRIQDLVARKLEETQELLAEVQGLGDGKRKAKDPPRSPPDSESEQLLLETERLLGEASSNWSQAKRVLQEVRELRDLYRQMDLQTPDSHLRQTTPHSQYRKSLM
UniProt Q92530: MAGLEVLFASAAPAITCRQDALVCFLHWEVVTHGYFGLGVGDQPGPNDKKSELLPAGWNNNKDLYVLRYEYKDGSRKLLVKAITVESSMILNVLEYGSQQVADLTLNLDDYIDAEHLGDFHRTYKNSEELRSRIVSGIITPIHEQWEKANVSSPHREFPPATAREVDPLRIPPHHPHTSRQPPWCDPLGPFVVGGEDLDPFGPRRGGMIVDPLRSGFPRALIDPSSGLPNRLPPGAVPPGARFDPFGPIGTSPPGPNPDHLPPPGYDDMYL
UniProt Q15311: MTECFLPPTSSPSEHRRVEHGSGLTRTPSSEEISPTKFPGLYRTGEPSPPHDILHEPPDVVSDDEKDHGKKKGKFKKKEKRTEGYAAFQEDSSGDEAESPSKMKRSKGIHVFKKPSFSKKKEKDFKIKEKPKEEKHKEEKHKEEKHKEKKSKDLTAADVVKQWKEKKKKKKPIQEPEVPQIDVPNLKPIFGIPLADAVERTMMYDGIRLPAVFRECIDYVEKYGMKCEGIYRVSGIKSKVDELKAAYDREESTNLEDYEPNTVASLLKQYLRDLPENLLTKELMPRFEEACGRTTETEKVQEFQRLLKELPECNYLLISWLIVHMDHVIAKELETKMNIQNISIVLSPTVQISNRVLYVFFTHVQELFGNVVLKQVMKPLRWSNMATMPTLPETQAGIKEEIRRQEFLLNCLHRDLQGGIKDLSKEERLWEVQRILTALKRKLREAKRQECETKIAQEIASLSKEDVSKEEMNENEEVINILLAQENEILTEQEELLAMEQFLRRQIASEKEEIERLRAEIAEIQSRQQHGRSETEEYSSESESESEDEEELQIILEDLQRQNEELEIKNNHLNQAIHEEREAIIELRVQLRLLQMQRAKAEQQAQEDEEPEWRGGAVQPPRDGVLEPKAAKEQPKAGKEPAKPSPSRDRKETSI
UniProt Q2PPJ7: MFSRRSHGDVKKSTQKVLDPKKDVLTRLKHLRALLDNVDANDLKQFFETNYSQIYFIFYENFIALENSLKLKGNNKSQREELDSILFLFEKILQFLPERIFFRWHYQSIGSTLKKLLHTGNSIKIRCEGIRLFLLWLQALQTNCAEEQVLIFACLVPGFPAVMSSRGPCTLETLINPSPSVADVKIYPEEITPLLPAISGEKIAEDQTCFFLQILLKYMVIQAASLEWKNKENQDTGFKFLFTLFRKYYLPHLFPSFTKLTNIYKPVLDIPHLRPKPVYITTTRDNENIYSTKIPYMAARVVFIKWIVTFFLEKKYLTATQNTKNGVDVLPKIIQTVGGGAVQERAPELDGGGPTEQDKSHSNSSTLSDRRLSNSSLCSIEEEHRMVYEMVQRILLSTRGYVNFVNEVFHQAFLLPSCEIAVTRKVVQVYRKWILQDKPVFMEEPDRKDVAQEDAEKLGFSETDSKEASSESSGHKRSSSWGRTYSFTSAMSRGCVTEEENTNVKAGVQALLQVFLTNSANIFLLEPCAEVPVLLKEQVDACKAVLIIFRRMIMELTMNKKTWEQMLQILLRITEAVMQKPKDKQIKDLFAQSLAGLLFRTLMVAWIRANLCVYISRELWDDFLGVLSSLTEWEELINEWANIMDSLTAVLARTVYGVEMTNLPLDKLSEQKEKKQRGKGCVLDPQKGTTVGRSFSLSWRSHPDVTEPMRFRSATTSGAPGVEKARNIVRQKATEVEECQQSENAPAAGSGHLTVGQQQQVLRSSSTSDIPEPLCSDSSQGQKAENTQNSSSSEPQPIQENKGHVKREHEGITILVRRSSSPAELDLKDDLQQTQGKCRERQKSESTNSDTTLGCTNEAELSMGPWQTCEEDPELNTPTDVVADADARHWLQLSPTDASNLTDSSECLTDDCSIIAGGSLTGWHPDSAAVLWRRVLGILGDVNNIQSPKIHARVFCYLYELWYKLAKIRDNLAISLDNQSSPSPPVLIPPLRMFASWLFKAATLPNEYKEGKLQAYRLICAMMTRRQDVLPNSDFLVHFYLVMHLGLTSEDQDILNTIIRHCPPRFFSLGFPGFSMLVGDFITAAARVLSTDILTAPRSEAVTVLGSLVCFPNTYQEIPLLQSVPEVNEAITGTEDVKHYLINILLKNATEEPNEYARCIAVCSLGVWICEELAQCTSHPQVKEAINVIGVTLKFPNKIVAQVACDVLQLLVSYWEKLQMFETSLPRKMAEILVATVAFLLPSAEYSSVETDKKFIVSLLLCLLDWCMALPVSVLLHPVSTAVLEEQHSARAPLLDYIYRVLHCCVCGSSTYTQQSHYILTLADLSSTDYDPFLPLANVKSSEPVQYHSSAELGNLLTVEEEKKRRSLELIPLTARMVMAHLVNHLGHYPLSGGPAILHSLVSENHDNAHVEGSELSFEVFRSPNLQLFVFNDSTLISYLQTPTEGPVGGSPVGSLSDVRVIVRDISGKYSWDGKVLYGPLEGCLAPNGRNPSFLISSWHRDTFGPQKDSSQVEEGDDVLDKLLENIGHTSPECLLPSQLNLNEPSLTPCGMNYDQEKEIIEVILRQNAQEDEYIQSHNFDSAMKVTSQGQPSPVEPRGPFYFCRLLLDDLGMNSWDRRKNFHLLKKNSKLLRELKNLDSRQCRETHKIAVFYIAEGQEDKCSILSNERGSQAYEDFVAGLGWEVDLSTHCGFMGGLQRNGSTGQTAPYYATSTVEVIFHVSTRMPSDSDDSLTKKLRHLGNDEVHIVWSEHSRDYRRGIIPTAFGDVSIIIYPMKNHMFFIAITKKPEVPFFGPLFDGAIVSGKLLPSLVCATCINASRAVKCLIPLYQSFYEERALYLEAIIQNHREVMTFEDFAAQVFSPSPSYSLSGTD
UniProt Q3B726, whole entry: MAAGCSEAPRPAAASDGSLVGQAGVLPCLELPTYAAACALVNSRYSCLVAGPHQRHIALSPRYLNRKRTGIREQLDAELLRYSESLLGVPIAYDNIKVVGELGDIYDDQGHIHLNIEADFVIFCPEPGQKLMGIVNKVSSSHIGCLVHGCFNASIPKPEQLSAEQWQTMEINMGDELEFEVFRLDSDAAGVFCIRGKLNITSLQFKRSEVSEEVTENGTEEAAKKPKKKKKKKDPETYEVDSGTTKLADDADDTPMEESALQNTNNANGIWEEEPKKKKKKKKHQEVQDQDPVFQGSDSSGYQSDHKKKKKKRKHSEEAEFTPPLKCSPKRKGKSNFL
UniProt Q15527: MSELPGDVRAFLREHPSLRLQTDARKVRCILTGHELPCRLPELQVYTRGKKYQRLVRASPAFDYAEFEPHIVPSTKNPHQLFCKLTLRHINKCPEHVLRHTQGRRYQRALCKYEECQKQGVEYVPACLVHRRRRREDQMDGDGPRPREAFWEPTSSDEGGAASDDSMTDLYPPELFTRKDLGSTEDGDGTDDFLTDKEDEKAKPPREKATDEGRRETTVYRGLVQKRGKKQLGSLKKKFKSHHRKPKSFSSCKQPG
UniProt Q16222: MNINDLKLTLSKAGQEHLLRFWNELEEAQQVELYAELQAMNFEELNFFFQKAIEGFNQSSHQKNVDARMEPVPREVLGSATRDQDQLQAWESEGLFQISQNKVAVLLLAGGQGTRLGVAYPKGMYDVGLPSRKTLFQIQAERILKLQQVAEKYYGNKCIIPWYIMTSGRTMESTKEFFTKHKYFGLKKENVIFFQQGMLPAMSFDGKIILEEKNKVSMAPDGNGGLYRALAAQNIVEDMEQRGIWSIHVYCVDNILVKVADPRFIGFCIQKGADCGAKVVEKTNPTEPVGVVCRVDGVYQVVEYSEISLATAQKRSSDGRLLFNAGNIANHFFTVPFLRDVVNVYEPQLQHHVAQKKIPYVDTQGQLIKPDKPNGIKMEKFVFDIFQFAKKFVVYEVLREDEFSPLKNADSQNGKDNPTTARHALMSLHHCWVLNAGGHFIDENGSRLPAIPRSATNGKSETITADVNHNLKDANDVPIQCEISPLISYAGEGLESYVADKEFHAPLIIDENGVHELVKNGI
UniProt Q5SSJ5: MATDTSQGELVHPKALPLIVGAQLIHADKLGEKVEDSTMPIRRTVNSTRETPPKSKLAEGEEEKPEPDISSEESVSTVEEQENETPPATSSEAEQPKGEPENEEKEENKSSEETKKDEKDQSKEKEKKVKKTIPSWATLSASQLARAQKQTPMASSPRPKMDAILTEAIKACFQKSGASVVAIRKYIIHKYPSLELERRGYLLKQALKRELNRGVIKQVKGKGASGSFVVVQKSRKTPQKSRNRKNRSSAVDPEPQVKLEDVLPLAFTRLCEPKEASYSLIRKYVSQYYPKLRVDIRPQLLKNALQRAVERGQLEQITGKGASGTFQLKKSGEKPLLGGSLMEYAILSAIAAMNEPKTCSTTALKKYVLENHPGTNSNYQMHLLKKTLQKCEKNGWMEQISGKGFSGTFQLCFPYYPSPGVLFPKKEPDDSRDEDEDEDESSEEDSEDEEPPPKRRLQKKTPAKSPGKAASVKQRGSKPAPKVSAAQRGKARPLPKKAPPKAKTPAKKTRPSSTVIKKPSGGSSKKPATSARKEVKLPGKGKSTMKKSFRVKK
UniProt Q17RN3: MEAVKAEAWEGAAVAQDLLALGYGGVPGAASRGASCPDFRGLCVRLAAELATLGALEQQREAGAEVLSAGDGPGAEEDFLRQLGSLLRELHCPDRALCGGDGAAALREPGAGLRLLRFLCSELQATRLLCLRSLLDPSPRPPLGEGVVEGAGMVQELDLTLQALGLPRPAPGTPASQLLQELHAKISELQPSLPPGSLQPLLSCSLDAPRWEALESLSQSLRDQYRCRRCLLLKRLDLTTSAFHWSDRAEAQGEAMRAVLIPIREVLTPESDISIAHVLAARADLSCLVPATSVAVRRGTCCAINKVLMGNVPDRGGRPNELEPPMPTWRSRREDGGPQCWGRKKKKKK

± gives the standard deviation of the averaged measurements. The list shows a part of the results.

Compound in this test: Nc1nc2c(ncn2[C@@H]2O[C@H](COP(=O)(O)OP(=O)(O)OP(=O)(O)O)[C@@H](O)[C@H]2O)c(=O)[nH]1 [guanosine triphosphate]
Description: NP40-soluble protein abundance relative to vehicle (solubility fold change) (ratio); higher = more soluble protein in presence of GTP. A digest of the protocol: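 Jurkat crude lysate (Dounce-homogenised) was treated with eight concentrations from 0.1 to 10 mM for 10 min at room temperature, then 3 min at 37 °C. It was solubilised with 0.8% NP40 and benzonase (60 min, 4 °C) and ultracentrifuged, and the supernatant was TMT-labelled for LC-MS/MS. Intensities were vsn-normalised, and the value is the fold change against the NP40-processed vehicle per replicate, from three independent experiments.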

Turning to CAMK4 (UniProt Q16566), the NP40-soluble protein abundance came out at 0.981 ± 0.064 (concentration: 0.1mM); 0.955 ± 0.059 (concentration: 0.5mM); 0.96 ± 0.08 (concentration: 1mM); 0.907 ± 0.081 (concentration: 2mM); 0.929 ± 0.1 (concentration: 4mM); 0.898 ± 0.095 (concentration: 6mM). Also, the NP40-soluble protein abundance (concentration: 8mM) amounted to 0.934 ± 0.091 and the NP40-soluble protein abundance (concentration: 10mM) was found to be 0.894 ± 0.077.
As for PCK2 (UniProt Q16822), the NP40-soluble protein abundance stood at 1.01 ± 0.059 (concentration: 0.1mM); 0.971 ± 0.05 (concentration: 0.5mM); 0.94 ± 0.084 (concentration: 1mM); 0.929 ± 0.028 (concentration: 2mM); 0.906 ± 0.032 (concentration: 4mM); 0.897 ± 0.032 (concentration: 6mM). Moreover, the NP40-soluble protein abundance runs as follows: (concentration: 8mM) 0.869 ± 0.094; (concentration: 10mM) 0.867 ± 0.067.
Regarding UniProt Q53GL0 and related entries, the NP40-soluble protein abundance worked out at 1.15 ± 0.09 (concentration: 0.1mM); 1.16 ± 0.079 (concentration: 0.5mM); 1.28 ± 0.16 (concentration: 1mM); 1.27 ± 0.29 (concentration: 2mM); 1.3 ± 0.064 (concentration: 4mM); 1.31 ± 0.12 (concentration: 6mM). Besides, the NP40-soluble protein abundance (concentration: 8mM) is 1.24 ± 0.13 and the NP40-soluble protein abundance (concentration: 10mM) amounted to 1.281 ± 0.0026.
Regarding HERC1 (UniProt Q15751), the NP40-soluble protein abundance by setting is: (concentration: 0.1mM) 1.12 ± 0.11; (concentration: 0.5mM) 1.13 ± 0.14; (concentration: 1mM) 1.11 ± 0.099; (concentration: 2mM) 1.12 ± 0.12; (concentration: 4mM) 1.15 ± 0.2; (concentration: 6mM) 1.13 ± 0.15. Further, the NP40-soluble protein abundance stood at 1.17 ± 0.23 (concentration: 8mM) and 1.08 ± 0.15 (concentration: 10mM).
UniProt Q5H8A4-5: the NP40-soluble protein abundance reads like this: (concentration: 0.1mM) 0.898 ± 0.12; (concentration: 0.5mM) 0.88 ± 0.1; (concentration: 1mM) 0.885 ± 0.15; (concentration: 2mM) 0.865 ± 0.11; (concentration: 4mM) 0.892 ± 0.11; (concentration: 6mM) 0.838 ± 0.093. In addition, the NP40-soluble protein abundance by setting is: (concentration: 8mM) 0.832 ± 0.11; (concentration: 10mM) 0.865 ± 0.093.
For the target “Q5QPM7 and related entries (UniProt Q92530)”, the NP40-soluble protein abundance (concentration: 0.1mM) came out at 0.996 ± 0.039; the NP40-soluble protein abundance (concentration: 0.5mM) came to 0.953 ± 0.033; the NP40-soluble protein abundance (concentration: 1mM) was 1.04 ± 0.046; the NP40-soluble protein abundance (concentration: 2mM) was determined as 1.05 ± 0.02; the NP40-soluble protein abundance (concentration: 4mM) worked out at 1.04 ± 0.036; the NP40-soluble protein abundance (concentration: 6mM) came out at 1.03 ± 0.069. Further, the NP40-soluble protein abundance is 0.999 ± 0.012 (concentration: 8mM) and 1.04 ± 0.025 (concentration: 10mM).
Consider RALBP1 (UniProt Q15311), for which the NP40-soluble protein abundance came out at 0.981 ± 0.056 (concentration: 0.1mM); 1.01 ± 0.013 (concentration: 0.5mM); 0.991 ± 0.054 (concentration: 1mM); 0.956 ± 0.05 (concentration: 2mM); 0.975 ± 0.031 (concentration: 4mM); 0.993 ± 0.021 (concentration: 6mM). Moreover, the NP40-soluble protein abundance runs as follows: (concentration: 8mM) 1.02 ± 0.028; (concentration: 10mM) 0.999 ± 0.045.
For UniProt Q2PPJ7 and related entries, the NP40-soluble protein abundance was 1.15 ± 0.23 (concentration: 0.1mM); 1.28 ± 0.32 (concentration: 0.5mM); 1.56 ± 0.1 (concentration: 1mM); 1.16 ± 0.64 (concentration: 2mM); 1.12 ± 0.38 (concentration: 4mM); 1.38 ± 0.45 (concentration: 6mM). In addition, the NP40-soluble protein abundance (concentration: 8mM) came to 1.35 ± 0.14 and the NP40-soluble protein abundance (concentration: 10mM) was 1.06 ± 0.14.
With TWISTNB (UniProt Q3B726), the NP40-soluble protein abundance runs as follows: (concentration: 0.1mM) 1.03 ± 0.072; (concentration: 0.5mM) 1.08 ± 0.06; (concentration: 1mM) 1.08 ± 0.12; (concentration: 2mM) 1.16 ± 0.04; (concentration: 4mM) 1.15 ± 0.095; (concentration: 6mM) 1.23 ± 0.11. In addition, the NP40-soluble protein abundance (concentration: 8mM) came out at 1.35 ± 0.13 and the NP40-soluble protein abundance (concentration: 10mM) was determined as 1.29 ± 0.13.
In the case of SURF2 (UniProt Q15527), the NP40-soluble protein abundance reads like this: (concentration: 0.1mM) 0.934 ± 0.072; (concentration: 0.5mM) 0.967 ± 0.091; (concentration: 1mM) 0.989 ± 0.025; (concentration: 2mM) 0.988 ± 0.088; (concentration: 4mM) 0.998 ± 0.079; (concentration: 6mM) 1.03 ± 0.064. The NP40-soluble protein abundance was determined as 1.09 ± 0.063 (concentration: 8mM) and 1.08 ± 0.083 (concentration: 10mM).
Consider UniProt Q16222 and related entries, for which the NP40-soluble protein abundance (concentration: 0.1mM) is 1.05 ± 0.032; the NP40-soluble protein abundance (concentration: 0.5mM) is 1.02 ± 0.06; the NP40-soluble protein abundance (concentration: 1mM) was determined as 0.9429 ± 0.0046; the NP40-soluble protein abundance (concentration: 2mM) worked out at 0.957 ± 0.043; the NP40-soluble protein abundance (concentration: 4mM) is 0.971 ± 0.042; the NP40-soluble protein abundance (concentration: 6mM) came to 0.927 ± 0.017. The NP40-soluble protein abundance is, setting by setting: (concentration: 8mM) 0.897 ± 0.012; (concentration: 10mM) 0.883 ± 0.051.
Regarding HP1BP3 (UniProt Q5SSJ5), the NP40-soluble protein abundance came out at 1.02 ± 0.079 (concentration: 0.1mM); 0.97 ± 0.034 (concentration: 0.5mM); 1.03 ± 0.041 (concentration: 1mM); 1.11 ± 0.086 (concentration: 2mM); 1.23 ± 0.061 (concentration: 4mM); 1.26 ± 0.058 (concentration: 6mM). In addition, the NP40-soluble protein abundance is 1.33 ± 0.1 (concentration: 8mM) and 1.54 ± 0.14 (concentration: 10mM).
For the target RRS1 (UniProt Q15050), the NP40-soluble protein abundance came out at 0.911 ± 0.042 (concentration: 0.1mM); 1.07 ± 0.057 (concentration: 0.5mM); 1.1 ± 0.076 (concentration: 1mM); 1.01 ± 0.075 (concentration: 2mM); 0.99 ± 0.12 (concentration: 4mM); 0.985 ± 0.059 (concentration: 6mM). Also, the NP40-soluble protein abundance by setting is: (concentration: 8mM) 0.976 ± 0.14; (concentration: 10mM) 1.04 ± 0.027.
Regarding BEND3 (UniProt Q5T5X7), the NP40-soluble protein abundance (concentration: 0.1mM) turned out to be 1.05 ± 0.043; the NP40-soluble protein abundance (concentration: 0.5mM) was determined as 0.98 ± 0.075; the NP40-soluble protein abundance (concentration: 1mM) was determined as 0.995 ± 0.038; the NP40-soluble protein abundance (concentration: 2mM) was 1.04 ± 0.08; the NP40-soluble protein abundance (concentration: 4mM) was 1.01 ± 0.081; the NP40-soluble protein abundance (concentration: 6mM) was 0.968 ± 0.099. Also, the NP40-soluble protein abundance was found to be 1.05 ± 0.079 (concentration: 8mM) and 0.989 ± 0.07 (concentration: 10mM).
Consider UniProt Q17RN3 and related entries, for which the NP40-soluble protein abundance is, setting by setting: (concentration: 0.1mM) 1.1 ± 0.026; (concentration: 0.5mM) 1.04 ± 0.027; (concentration: 1mM) 0.967 ± 0.011; (concentration: 2mM) 1.07 ± 0.054; (concentration: 4mM) 1.04 ± 0.075; (concentration: 6mM) 0.9845 ± 0.0052. Besides, the NP40-soluble protein abundance by setting is: (concentration: 8mM) 0.974 ± 0.051; (concentration: 10mM) 0.991 ± 0.037.
